The supplement of paper PMC10849652
This is one part of the list.

By UniProt entry, the sequences of proteins in these tests, tags left out. Where a name states a change or a piece, a line headed by the entry shows the natural chain unless it says otherwise.
UniProt Q07954: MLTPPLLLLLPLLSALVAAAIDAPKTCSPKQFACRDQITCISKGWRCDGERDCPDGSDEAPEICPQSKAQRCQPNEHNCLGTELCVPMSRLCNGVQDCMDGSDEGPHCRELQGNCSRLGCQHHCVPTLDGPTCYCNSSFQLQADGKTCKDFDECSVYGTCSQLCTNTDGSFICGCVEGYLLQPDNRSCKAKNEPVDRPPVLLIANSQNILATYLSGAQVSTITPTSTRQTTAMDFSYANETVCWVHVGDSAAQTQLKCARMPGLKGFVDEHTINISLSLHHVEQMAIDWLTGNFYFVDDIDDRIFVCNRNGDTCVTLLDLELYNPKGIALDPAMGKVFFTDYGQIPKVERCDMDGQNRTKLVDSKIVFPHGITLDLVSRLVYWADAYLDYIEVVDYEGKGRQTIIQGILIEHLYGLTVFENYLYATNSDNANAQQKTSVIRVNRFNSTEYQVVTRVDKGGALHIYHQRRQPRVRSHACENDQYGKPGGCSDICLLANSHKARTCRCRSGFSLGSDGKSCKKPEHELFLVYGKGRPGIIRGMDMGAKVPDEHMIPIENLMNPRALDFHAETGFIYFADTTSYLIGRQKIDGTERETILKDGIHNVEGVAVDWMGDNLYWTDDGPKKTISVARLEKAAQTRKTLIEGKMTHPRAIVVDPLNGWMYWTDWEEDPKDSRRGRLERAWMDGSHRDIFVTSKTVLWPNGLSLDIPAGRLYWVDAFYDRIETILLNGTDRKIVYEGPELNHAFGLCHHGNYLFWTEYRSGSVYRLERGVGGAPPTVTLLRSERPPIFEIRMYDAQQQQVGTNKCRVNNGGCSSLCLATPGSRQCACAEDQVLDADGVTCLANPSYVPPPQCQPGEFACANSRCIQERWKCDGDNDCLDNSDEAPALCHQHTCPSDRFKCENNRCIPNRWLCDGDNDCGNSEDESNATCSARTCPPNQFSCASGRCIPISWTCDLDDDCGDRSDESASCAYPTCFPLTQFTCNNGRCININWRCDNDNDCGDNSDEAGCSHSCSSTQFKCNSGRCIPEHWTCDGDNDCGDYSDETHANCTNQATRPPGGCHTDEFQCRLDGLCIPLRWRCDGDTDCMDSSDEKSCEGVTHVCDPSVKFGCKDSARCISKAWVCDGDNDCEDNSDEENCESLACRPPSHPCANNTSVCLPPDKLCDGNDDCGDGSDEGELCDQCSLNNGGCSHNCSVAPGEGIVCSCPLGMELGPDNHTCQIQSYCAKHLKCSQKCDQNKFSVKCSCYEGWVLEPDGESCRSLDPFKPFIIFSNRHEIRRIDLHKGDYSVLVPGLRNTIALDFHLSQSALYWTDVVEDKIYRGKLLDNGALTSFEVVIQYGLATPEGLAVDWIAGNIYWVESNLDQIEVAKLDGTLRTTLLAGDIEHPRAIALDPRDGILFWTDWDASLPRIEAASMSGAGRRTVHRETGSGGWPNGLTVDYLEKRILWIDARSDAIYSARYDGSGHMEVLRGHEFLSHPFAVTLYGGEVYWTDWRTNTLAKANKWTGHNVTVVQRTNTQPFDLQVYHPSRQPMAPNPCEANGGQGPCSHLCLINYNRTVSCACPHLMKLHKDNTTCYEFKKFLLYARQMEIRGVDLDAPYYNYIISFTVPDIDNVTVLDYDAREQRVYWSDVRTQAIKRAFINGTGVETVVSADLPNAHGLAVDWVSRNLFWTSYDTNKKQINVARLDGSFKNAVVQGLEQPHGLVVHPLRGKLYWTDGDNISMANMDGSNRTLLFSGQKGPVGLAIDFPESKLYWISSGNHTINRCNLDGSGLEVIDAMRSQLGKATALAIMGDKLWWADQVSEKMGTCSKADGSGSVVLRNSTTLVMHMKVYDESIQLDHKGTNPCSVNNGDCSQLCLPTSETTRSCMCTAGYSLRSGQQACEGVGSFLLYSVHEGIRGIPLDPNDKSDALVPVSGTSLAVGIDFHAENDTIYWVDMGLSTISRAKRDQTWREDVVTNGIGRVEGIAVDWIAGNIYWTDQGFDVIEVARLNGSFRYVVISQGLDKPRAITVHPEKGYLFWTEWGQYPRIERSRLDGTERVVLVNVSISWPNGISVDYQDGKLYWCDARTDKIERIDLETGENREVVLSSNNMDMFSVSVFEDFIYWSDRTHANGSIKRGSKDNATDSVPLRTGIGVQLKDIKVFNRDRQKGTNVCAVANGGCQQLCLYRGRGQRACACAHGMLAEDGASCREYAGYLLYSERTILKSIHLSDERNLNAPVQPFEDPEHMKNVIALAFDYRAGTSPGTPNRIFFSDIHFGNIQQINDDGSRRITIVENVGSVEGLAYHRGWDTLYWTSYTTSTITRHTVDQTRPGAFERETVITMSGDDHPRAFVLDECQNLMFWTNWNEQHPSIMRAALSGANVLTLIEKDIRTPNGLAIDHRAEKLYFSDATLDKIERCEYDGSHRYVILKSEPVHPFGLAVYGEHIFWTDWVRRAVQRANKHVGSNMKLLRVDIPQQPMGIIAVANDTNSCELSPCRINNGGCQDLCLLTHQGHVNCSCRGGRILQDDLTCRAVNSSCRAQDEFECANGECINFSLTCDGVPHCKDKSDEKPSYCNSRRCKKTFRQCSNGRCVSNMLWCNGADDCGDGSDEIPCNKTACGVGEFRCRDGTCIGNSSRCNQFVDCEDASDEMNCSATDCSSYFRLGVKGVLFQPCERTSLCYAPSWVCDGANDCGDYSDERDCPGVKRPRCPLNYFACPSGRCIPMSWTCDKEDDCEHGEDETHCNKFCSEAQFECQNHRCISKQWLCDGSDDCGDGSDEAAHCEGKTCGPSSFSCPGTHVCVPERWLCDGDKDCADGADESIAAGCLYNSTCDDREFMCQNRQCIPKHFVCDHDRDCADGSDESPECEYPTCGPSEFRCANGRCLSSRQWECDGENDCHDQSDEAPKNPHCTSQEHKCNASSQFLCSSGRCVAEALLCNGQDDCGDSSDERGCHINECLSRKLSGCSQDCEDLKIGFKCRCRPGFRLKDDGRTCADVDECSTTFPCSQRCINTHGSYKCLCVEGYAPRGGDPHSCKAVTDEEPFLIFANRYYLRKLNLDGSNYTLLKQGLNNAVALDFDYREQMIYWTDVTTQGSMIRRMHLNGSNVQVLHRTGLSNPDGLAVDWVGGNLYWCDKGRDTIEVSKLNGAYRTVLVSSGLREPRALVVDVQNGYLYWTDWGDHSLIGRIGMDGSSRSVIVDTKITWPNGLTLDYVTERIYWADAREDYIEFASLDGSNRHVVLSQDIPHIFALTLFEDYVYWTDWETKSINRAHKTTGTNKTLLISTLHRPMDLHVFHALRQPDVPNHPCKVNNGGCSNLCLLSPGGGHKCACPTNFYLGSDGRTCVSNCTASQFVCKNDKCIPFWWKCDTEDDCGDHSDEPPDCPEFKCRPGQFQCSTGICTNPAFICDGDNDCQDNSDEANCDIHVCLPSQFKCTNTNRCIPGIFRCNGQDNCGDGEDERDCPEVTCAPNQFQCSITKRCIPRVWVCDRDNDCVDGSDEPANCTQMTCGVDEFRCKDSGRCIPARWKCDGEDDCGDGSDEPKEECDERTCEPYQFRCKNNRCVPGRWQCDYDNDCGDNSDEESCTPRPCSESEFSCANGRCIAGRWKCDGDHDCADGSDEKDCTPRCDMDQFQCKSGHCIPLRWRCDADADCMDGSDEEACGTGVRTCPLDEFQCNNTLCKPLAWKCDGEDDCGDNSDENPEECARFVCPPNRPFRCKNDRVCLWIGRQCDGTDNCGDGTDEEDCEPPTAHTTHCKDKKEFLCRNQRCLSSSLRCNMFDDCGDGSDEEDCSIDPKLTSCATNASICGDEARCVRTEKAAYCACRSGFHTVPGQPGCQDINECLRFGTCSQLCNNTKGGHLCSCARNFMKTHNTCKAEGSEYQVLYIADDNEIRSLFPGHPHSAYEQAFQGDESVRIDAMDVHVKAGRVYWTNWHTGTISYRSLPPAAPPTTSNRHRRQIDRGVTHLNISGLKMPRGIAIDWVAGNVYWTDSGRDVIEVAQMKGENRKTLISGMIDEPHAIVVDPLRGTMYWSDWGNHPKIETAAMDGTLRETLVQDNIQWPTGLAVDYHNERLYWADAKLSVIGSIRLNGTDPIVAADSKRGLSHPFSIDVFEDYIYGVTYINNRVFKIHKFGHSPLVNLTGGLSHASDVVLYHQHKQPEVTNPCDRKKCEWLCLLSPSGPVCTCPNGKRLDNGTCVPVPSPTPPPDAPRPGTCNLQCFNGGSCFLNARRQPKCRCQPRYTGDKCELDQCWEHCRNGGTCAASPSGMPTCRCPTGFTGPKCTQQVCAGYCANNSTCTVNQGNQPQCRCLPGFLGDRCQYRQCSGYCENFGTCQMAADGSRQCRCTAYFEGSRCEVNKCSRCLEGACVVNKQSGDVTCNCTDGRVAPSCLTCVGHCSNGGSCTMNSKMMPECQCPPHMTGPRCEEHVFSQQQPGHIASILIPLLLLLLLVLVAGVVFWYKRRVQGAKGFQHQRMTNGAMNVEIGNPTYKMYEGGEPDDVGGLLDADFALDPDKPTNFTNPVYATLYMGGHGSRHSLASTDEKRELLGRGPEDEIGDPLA
UniProt P55268: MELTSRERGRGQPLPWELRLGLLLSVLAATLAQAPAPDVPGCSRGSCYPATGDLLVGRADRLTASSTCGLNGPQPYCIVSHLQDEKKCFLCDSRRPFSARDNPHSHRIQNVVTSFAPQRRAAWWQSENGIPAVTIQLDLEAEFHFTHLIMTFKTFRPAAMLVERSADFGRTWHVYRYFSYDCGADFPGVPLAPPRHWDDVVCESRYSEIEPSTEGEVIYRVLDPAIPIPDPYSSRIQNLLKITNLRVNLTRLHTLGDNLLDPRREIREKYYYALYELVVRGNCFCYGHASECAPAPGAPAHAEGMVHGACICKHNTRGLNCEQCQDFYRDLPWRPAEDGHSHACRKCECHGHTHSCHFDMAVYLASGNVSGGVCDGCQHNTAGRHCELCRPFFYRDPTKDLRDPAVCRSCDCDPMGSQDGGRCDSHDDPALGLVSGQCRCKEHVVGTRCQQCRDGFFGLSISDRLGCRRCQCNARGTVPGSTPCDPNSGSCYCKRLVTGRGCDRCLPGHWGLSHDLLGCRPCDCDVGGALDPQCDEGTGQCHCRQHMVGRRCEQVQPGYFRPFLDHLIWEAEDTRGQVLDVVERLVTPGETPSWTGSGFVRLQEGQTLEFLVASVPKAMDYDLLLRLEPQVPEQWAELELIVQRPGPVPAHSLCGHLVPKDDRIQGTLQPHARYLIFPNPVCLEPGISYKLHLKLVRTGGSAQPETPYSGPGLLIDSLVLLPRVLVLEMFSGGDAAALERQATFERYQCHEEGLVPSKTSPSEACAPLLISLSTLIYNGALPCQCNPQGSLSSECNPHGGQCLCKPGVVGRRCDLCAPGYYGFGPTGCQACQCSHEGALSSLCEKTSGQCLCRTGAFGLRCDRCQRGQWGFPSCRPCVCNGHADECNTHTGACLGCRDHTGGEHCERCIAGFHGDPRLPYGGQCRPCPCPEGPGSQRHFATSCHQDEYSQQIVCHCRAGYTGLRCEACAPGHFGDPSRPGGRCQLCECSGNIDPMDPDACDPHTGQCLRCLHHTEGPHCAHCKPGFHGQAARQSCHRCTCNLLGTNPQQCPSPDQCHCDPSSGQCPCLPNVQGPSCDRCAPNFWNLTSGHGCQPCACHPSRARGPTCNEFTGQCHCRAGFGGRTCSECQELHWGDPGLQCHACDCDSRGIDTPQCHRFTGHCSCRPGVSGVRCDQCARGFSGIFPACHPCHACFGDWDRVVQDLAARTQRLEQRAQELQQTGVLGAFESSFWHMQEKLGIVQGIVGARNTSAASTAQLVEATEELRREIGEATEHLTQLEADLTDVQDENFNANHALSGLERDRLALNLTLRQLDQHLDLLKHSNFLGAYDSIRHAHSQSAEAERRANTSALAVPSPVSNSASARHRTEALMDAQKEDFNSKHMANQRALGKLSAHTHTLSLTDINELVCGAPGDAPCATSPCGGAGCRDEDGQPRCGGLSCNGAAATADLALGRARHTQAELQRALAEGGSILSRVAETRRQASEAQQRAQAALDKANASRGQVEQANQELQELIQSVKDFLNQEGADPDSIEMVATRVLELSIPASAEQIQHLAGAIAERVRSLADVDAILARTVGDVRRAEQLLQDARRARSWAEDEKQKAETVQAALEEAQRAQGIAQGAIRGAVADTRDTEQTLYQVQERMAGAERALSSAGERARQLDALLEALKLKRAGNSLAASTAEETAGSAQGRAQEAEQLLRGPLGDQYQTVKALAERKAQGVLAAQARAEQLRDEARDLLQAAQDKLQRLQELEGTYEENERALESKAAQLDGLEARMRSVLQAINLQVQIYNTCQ
UniProt Q3ZCW2: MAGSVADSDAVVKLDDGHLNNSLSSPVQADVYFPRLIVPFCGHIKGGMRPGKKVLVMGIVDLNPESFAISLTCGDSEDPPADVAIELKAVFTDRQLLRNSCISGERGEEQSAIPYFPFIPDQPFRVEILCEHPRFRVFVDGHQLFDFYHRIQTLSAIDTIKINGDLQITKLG

Tests used:
Test in all cases: log2 fold change, soluble protein after heating vs DMSO (PISA); higher = thermal stabilisation; K562 cells, 10 uM, 30 min; active = over 0.2 and 3.5 SD of the protein, either way, in both replicates (recomputed)
[1] = compound: Cn1cc(-c2ccc3c(c2)CCN3C(=O)Cc2cccc(C(F)(F)F)c2)c2c(N)ncnc21
In short: (§1)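 K562 cells (2×10^6 cells/mL) were treated with 10 μM compound for 30 min, and aliquots were heated for 3 min over 48°C-58°C. Pooled aliquots were extracted in PBS with 0.5% NP-40 at 4°C, and the supernatant after 21,000xg for 90 min was measured by TMTpro 16plex LC-MS/MS with channel sums equalised. Reported thermal stability, relative to control samples and from duplicates, is a log2 fold change.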

[2] = compound: O=C1NC(=O)C(c2cnc3ccccn23)=C1c1cn2c3c(cc(F)cc13)CN(C(=O)N1CCCCC1)CC2
In short: as §1

[3] = compound: Cc1cccc(CC(=O)N2CCc3c2ccc(-c2cn(C)c4ncnc(N)c24)c3F)n1
In short: as §1

nilotinib = compound: Cc1cn(-c2cc(NC(=O)c3ccc(C)c(Nc4nccc(-c5cccnc5)n4)c3)cc(C(F)(F)F)c2)cn1 [nilotinib]
In short: as §1

[4] = compound: Cc1nc(Nc2n[nH]c3c2CN(C(=O)N[C@H](CN(C)C)c2ccccc2)C3(C)C)c2sccc2n1
In short: as §1

dasatinib = compound: Cc1nc(Nc2ncc(C(=O)Nc3c(C)cccc3Cl)s2)cc(N2CCN(CCO)CC2)n1 [dasatinib]
In short: as §1

[5] = compound: Cc1ncc(-c2ccnc(Nc3ccc(S(C)(=O)=O)cc3)n2)n1C(C)C
In short: as §1

[6] = compound: NC(=O)Nc1cc(-c2cccc(F)c2)sc1C(=O)N[C@H]1CCCNC1
In short: as §1

[7] = compound: NCC(=O)Nc1ccc(-n2nc(C(F)(F)F)cc2-c2ccc3c(ccc4ccccc43)c2)cc1
In short: as §1

entinostat = compound: Nc1ccccc1NC(=O)c1ccc(CNC(=O)OCc2cccnc2)cc1 [entinostat]
In short: as §1

vorinostat = compound: O=C(CCCCCCC(=O)Nc1ccccc1)NO [vorinostat]
In short: as §1

citarinostat = compound: O=C(CCCCCCNC(=O)c1cnc(N(c2ccccc2)c2ccccc2Cl)nc1)NO [citarinostat]
In short: as §1

[8] = compound: c1cc(OCCN2CCCCC2)cc(-c2n[nH]c3ccc(-c4nnc[nH]4)cc23)c1
In short: as §1

[9] = compound: Cn1cc(-c2ccc3nnc(C(F)(F)c4ccc5ncccc5c4)n3n2)cn1
In short: as §1

mubritinib = compound: FC(F)(F)c1ccc(/C=C/c2nc(COc3ccc(CCCCn4ccnn4)cc3)co2)cc1 [mubritinib]
In short: as §1

[10] = compound: NC(=O)c1cnc(N[C@@H]2CCCC[C@@H]2N)nc1Nc1cccc(-n2nccn2)c1
In short: as §1

[11] = compound: NC1(c2ccc(-c3nc4ccn5c(=O)[nH]nc5c4cc3-c3ccccc3)cc2)CCC1
In short: as §1

silmitasertib = compound: O=C(O)c1ccc2c(c1)nc(Nc1cccc(Cl)c1)c1ccncc12 [silmitasertib]
In short: as §1

tipifarnib = compound: Cn1cncc1[C@@](N)(c1ccc(Cl)cc1)c1ccc2c(c1)c(-c1cccc(Cl)c1)cc(=O)n2C [tipifarnib]
In short: as §1

Measured: log2 fold change

LPCAT4 (UniProt Q643R3)
inactive: [1] -0.202 | [2] 0.205

LIMS1 isoform 5 (UniProt P48059)
inactive: [1] -0.118

LIG4 (UniProt P49917)
inactive: [3] -0.198 | nilotinib -0.009 | [4] 0.016 | dasatinib -0.218 | [5] 0.058 | [6] 0.062 | [7] -0.106 | entinostat 0.054 | vorinostat 0.063 | citarinostat 0.19 | [8] -0.012

LRCH4 (UniProt O75427)
inactive: [3] 0.067 | dasatinib -0.039 | [9] -0.147 | [6] 0.176 | entinostat 0.086 | vorinostat -0.314 | citarinostat -0.47 | [2] -0.062 | [8] -0.062

L1TD1 (UniProt Q5T7N2)
inactive: [3] 0.093 | dasatinib 0.061 | [1] -0.191 | mubritinib 0.087 | [10] -0.472 | [11] -0.341 | vorinostat 0.524 | silmitasertib -0.308

LDHD (UniProt Q86WU2)
inactive: [1] -0.102

LIPT2 (UniProt A6NK58)
inactive: dasatinib -0.035 | [6] 0.26 | [7] 0.046 | entinostat -0.064 | [2] 0.113

LOR (UniProt P23490)
inactive: mubritinib -0.579 | [11] 0.183 | citarinostat 0.059 | silmitasertib 0.028 | [2] -0.187 | [8] 1.57

LCN2 isoform 2 (UniProt P80188)
inactive: [6] 1.25 | entinostat 0.04

LARP1B, A0A3B3ISF0
inactive: [3] 0.016 | [9] -0.13 | tipifarnib 0.011 | [6] 0.13 | entinostat 0.17 | vorinostat 0.145 | citarinostat -0.414 | [8] -0.48

LHFPL2 (UniProt Q6ZUX7)
inactive: tipifarnib 0.039 | [7] 0.042 | [2] -0.036

LRP1 (UniProt Q07954)
inactive: [3] -0.038 | nilotinib -0.375 | [4] -0.107 | dasatinib 0.083 | [5] -0.109 | mubritinib 0.194 | [10] -0.084 | [11] -0.163 | [7] -0.025 | vorinostat 0.246 | citarinostat -0.1 | silmitasertib 0.209 | [2] -0.018 | [8] 0.089

LARGE2 (UniProt Q8N3Y3)
inactive: [6] 0.023 | entinostat 0.031

LCOR isoform 3 (UniProt Q96JN0)
inactive: [10] 0.042

LAPTM4A (UniProt Q15012)
inactive: [6] -0.148 | entinostat -0.085

LAMB2 (UniProt P55268)
inactive: dasatinib -0.014 | [9] 0.031 | tipifarnib 0.041 | mubritinib 0.339 | [11] -0.187 | silmitasertib -0.021

5 successive records from above:
LARP1B, A0A3B3ISF0
inactive: [3] 0.016 | [9] -0.13 | tipifarnib 0.011 | [6] 0.13 | entinostat 0.17 | vorinostat 0.145 | citarinostat -0.414 | [8] -0.48

LHFPL2 (UniProt Q6ZUX7)
inactive: tipifarnib 0.039 | [7] 0.042 | [2] -0.036

LRP1 (UniProt Q07954)
inactive: [3] -0.038 | nilotinib -0.375 | [4] -0.107 | dasatinib 0.083 | [5] -0.109 | mubritinib 0.194 | [10] -0.084 | [11] -0.163 | [7] -0.025 | vorinostat 0.246 | citarinostat -0.1 | silmitasertib 0.209 | [2] -0.018 | [8] 0.089

LARGE2 (UniProt Q8N3Y3)
inactive: [6] 0.023 | entinostat 0.031

LCOR isoform 3 (UniProt Q96JN0)
inactive: [10] 0.042

Later entries

LRMP (UniProt Q12912)
inactive: [9] 0.278

LLGL1 (UniProt Q15334)
inactive: dasatinib 0.158 | [1] -0.137 | tipifarnib 0.129 | [6] -0.073 | entinostat -0.019 | [2] 0.068

LGALSL (UniProt Q3ZCW2)
inactive: dasatinib -0.114 | mubritinib -0.284 | [11] -0.035 | silmitasertib 0.191

LIMD2 (UniProt Q9BT23)
inactive: [1] -0.034 | tipifarnib -0.125 | [6] -0.035 | [10] 0.044 | entinostat -0.052 | citarinostat -0.038 | [8] -0.158

LATS1 (UniProt O95835)
inactive: [3] -0.075 | vorinostat 0.08

LIN52 (UniProt Q52LA3)
inactive: dasatinib -0.049 | mubritinib -0.117 | [11] 0.294 | silmitasertib -0.045

LGMN (UniProt Q99538)
inactive: [3] -0.159 | tipifarnib 0.046 | vorinostat 0

LINC00526 (UniProt Q96FQ7)
inactive: citarinostat 0.114 | [8] 0.035

LIPT1 (UniProt Q9Y234)
inactive: mubritinib -0.701 | [10] 0.155 | [11] 0.35 | silmitasertib 0.282

LPL (UniProt P06858)
inactive: [3] -0.088 | dasatinib 0.111 | [1] -0.183 | tipifarnib 0.032 | mubritinib -0.034 | [6] -0.032 | [10] 0.088 | [11] 0.124 | [7] 0.061 | entinostat -0.053 | vorinostat 0.039 | citarinostat -0.256 | silmitasertib -0.03 | [8] -0.243
